{
  "source": "patent US6124334A",
  "about": "“Hetero-aromatic ring substituted phenyloxazolidinone antimicrobials” (Pharmacia & Upjohn Company, priority 1998, dated 2000)",
  "tested_on": "S. aureus, UC ®9213",
  "assay": "In vitro MIC by agar dilution, S. aureus",
  "format": "cell-based",
  "settings": "Staphylococcus aureus, UC9213, read-out: In vitro Activities: Minimum Inhibitory Concentrations, S. aureus, UC 9213",
  "excerpt": "The oxazolidinone antibacterial agents of this invention have useful activity against a variety of organisms. The in vitro activity of compounds of this invention can be assessed by standard testing procedures such as the determination of minimum inhibitory concentration (MIC) by agar dilution as desribed in \"Methods for Dilution Antimicrobial Susceptibility Tests for Bacteria That Grow Aerobically\" (MFT) published January 1983 by the National Committee for Clinical Laboratory Standards, 771 East Lancaster Avenue, Villanova, Pa. 19084, USA. The activity of selected compounds of this invention against Staphylococcus aureus and Streptococcus pneumoniae are shown in Table 1.",
  "data": [
    {"smiles": "CN[C@H](CC(C)C)C(=O)N[C@H]1C(=O)N[C@@H](CC(N)=O)C(=O)N[C@H]2C(=O)N[C@H]3C(=O)N[C@H](C(=O)N[C@H](C(=O)O)c4cc(O)cc(O)c4-c4cc3ccc4O)[C@H](O)c3ccc(c(Cl)c3)Oc3cc2cc(c3O[C@@H]2O[C@H](CO)[C@@H](O)[C@H](O)[C@H]2O[C@H]2C[C@](C)(N)[C@H](O)[C@H](C)O2)Oc2ccc(cc2Cl)[C@H]1O", "note": "[Vancomycin]", "values": [
      {"measurement": "MIC", "value": 1, "unit": "mg/L"}
    ]}
  ]
}
